Our source for the log2 fold change values is the supplement of paper PMC12819154, “High-throughput peptide-centric local stability assay extends protein–ligand identification to membrane proteins, tissues and bacteria” (Nature Structural & Molecular Biology, 2025).

The list shows a part of the results. Most values lie at the level of the controls, where differences are scatter.

Compound in the experiment: CN[C@@H]1C[C@H]2O[C@@](C)([C@@H]1OC)n1c3ccccc3c3c4c(c5c6ccccc6n2c5c31)C(=O)NC4 [staurosporine]
Description: log2 fold change of tryptic peptide abundance, ligand vs vehicle (limited proteolysis) (log2 ratio); higher = more trypsin-susceptible (destabilized). The note with it: ligand concentration: 20 uM; sample: mouse liver crude lysate; replicate design: treated separately.
Regarding “UniProt O54916 (peptide sequence: TATNVPANVSK, peptide start residue: 680)”, the log2 fold change stood at 0.0928.
With “UniProt O35969 (peptide sequence: LQDWALR, peptide start residue: 99)”, the log2 fold change is -0.313.
Regarding “UniProt O88522 (peptide sequence: ERCEELLHFQVSQREEK, peptide start residue: 74)”, the log2 fold change is 0.548.
As for “UniProt O88532 (peptide sequence: HATIYPTEEELQAVQK, peptide start residue: 731)”, the log2 fold change was -0.687.
In the case of “UniProt O54965 (peptide sequence: KGDEYDVCAICLEEYEDGDKLR, peptide start residue: 233)”, the log2 fold change is -0.279.
“UniProt O35685 (peptide sequence: LVTSDPEINTKK, peptide start residue: 258)”: the log2 fold change was -0.676.
Take “UniProt O70494 (peptide sequence: VACTCPNCKEGGGR, peptide start residue: 600)”: the log2 fold change was -0.258.
Turning to “UniProt O54804 (peptide sequence: LFGIFPQGR, peptide start residue: 192)”, the log2 fold change is -0.12.
The same measure for “UniProt O70133 (peptide sequence: LAAQSCALSLVR, peptide start residue: 239)”: -0.538; for “UniProt O54774 (peptide sequence: SIQGHHVCLLVK, peptide start residue: 1156)”: -0.736; for “UniProt O35954 (peptide sequence: ASPEPSALPAQR, peptide start residue: 620)”: 0.152.
